Measurements taken from patent US10857197B2, “Treatment of HMGB1-mediated inflammation” (The Feinstein Institue for Medical Research, priority 2014, dated 2020).
At least one compound was matched to its structure with a doubt left.

System: human influenza pdH1N1 strain
Experiment: Serum HMGB1 in pdH1N1-infected cotton rats (ELISA)
Type: in vivo, cotton rat (Sigmodon hispidus)

With `CCCCCC/C=C\CCCCCCCCCC(=O)N[C@H]1[C@H](OC[C@H]2O[C@H](OP(=O)(O)O)[C@H](NC(=O)CC(=O)CCCCCCCCCCC)[C@@H](OCCCCCCCCCC)[C@@H]2O)O[C@H](COC)[C@@H](OP(=O)(O)O)[C@@H]1OCC[C@@H](CCCCCCC)OC` [Eritoran] the “circulating (serum) HMGB1” value was “inhibited”.
